Measurements as given in paper PMC11257983 (2024).
Results are given in words; binding and its absence hold for the method and conditions named. For some of these results: In cells and extracts the contact can be indirect. Some binding calls cover weakened binding; strength is not graded here. For some of these results: Tags and fused reporters may be left off the sequences shown.

Legend:
[1] = target: T1, CNK^2–330 (Drosophila) (UniProt Q7KNQ9); test: cryo-EM structure; 6 µM KSR–MEK complex mixed with 6.7 µM CNK–HYP complex, 1 mM MgCl2, 1 mM AMP–PNP, 50 µM trametinib, 4 °C; both purified
T1 sequence: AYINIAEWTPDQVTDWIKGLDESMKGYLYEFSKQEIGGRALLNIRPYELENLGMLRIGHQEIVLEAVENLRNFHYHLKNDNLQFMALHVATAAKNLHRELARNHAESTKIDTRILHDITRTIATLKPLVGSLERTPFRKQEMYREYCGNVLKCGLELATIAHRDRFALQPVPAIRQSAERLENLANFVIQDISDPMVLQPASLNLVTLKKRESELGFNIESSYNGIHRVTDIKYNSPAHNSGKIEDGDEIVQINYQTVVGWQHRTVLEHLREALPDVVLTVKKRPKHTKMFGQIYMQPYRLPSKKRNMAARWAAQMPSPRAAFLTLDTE

[2] = target: T1, CNK^2–330 (Drosophila); test: crystal structure; CNK^2–330–HYP^2–106 complex, 20 mg/ml, 0.1 M Bis-Tris propane pH 7.0, 1.0 M ammonium tartrate, 20 °C; co-expressed and co-purified; both purified
[3] = target: T2, CNK^2–330 D195K (Drosophila) (UniProt Q7KNQ9); test: SEC; co-expressed and co-purified binary complexes (CNK–HYP or KSR–MEK) run alone; 20 mM HEPES pH 7.0, 500 mM NaCl, 1 mM TCEP; S200 10/300 column; both purified
T2 sequence: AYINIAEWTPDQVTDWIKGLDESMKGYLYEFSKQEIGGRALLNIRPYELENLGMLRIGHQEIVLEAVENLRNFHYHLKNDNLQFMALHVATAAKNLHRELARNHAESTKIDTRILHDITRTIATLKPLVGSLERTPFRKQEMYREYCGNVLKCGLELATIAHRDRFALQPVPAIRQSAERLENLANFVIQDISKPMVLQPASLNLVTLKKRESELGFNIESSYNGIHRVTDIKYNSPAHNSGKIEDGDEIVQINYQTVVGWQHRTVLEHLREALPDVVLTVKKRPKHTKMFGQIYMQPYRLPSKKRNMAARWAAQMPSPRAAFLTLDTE

[4] = target: T1, CNK^2–330 (Drosophila); test: as above
[5] = target: T3, CNK^2–330 V198E (Drosophila) (UniProt Q7KNQ9); test: as above
T3 sequence: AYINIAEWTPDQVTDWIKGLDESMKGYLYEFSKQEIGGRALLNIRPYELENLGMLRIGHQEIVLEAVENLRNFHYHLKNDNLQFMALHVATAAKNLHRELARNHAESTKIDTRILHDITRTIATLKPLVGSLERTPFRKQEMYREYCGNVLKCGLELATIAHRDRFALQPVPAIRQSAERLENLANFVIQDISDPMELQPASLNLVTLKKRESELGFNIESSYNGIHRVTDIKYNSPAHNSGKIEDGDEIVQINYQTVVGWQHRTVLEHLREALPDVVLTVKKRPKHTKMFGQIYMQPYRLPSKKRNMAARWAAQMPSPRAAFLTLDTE

[6] = target: T4, CNK^2–330 M197E (Drosophila) (UniProt Q7KNQ9); test: as above
T4 sequence: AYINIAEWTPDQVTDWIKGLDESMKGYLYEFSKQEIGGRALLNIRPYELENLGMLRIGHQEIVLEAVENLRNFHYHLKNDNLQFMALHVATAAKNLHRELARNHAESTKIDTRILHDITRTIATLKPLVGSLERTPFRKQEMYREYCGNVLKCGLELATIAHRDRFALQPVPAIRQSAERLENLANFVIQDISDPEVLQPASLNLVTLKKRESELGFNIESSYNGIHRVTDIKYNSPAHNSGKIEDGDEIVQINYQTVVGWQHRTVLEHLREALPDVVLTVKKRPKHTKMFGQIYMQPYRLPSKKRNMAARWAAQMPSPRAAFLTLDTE

[7] = target: T5, GST-HYP (Drosophila) (UniProt Q8ML92); test: pull-down; GST-HYP as bait, CNK^2–549 co-expressed in S2 cells with Ha-RAS^V12, Pyo-RAF, V5-KSR and Myc-MEK (RRKM); total lysates, overnight at 4 °C; immunoblot
T5 sequence: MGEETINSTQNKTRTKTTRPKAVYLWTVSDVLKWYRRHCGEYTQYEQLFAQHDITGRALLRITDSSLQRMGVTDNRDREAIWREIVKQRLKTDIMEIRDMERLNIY

[8] = target: T6, GST-HYP I97D (Drosophila) (UniProt Q8ML92); test: as above
T6 sequence: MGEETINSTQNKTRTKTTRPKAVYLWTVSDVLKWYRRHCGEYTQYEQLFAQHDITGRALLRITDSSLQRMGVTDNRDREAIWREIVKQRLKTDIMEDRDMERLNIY

[9] = target: T7, GST-HYP L90D (Drosophila) (UniProt Q8ML92); test: as above
T7 sequence: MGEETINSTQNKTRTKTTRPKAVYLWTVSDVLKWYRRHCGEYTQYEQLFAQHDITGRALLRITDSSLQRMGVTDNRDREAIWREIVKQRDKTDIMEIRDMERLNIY

[10] = target: T5, GST-HYP (Drosophila); test: pull-down; GST-HYP as bait, CNK, KSR and MEK variants co-expressed in S2 cells (Fig. 2c,d; Extended Data Fig. 7e); total lysates, overnight at 4 °C; immunoblot
[11] = target: T5, GST-HYP (Drosophila); test: pull-down; GST-HYP as bait, Flag-CNK^2–549 variants co-expressed in S2 cells without other pathway components (binary CNK–HYP interaction); total lysates, overnight at 4 °C; immunoblot
[12] = target: T6, GST-HYP I97D (Drosophila); test: as above
[13] = target: T7, GST-HYP L90D (Drosophila); test: as above

Measured: binding

B1: HYP^2–106 (protein, UniProt Q8ML92 2-106)
chain: GEETINSTQNKTRTKTTRPKAVYLWTVSDVLKWYRRHCGEYTQYEQLFAQHDITGRALLRITDSSLQRMGVTDNRDREAIWREIVKQRLKTDIMEIRDMERLNIY
binds: [1] | [2] | [3] | [4] | [5] | [6]

B2: Flag-CNK^2–549 (domain or fragment, UniProt Q7KNQ9 2-549)
chain: AYINIAEWTPDQVTDWIKGLDESMKGYLYEFSKQEIGGRALLNIRPYELENLGMLRIGHQEIVLEAVENLRNFHYHLKNDNLQFMALHVATAAKNLHRELARNHAESTKIDTRILHDITRTIATLKPLVGSLERTPFRKQEMYREYCGNVLKCGLELATIAHRDRFALQPVPAIRQSAERLENLANFVIQDISDPMVLQPASLNLVTLKKRESELGFNIESSYNGIHRVTDIKYNSPAHNSGKIEDGDEIVQINYQTVVGWQHRTVLEHLREALPDVVLTVKKRPKHTKMFGQIYMQPYRLPSKKRNMAARWAAQMPSPRAAFLTLDTEQLATGGTGSAVPDPSKSLSSEKREVLTKANPVSSASDSDSSCSDIPTPTDPKLAAREIRLYYPKPRALLQRRNTICGCEYLSLKNSDLVVPSWHERKPGIGSPTNCDPGSPSIRDKSISFGYGLEMAARPTTCIGIAGDTSTDKARRMFHEARKLKQLTEDSQREFLVDRYKPGVSKVVRFDAKEDYVMKNEKFICNVENTILETFEPIPFADEGDEDA
binds: [7] | [8] | [9] | [10] | [11] | [12] | [13]
